Literature values as cited in patent US20050004225A1, “Oxidoreductase inhibitors and methods of screening and using thereof” (priority 2003, published 2005).
At least one structure is not confirmed: it was looked up by name or label, or the drawing left a doubt.

Molecular target: T1, rat lens aldose reductase (Rattus norvegicus, UniProt P07943)
T1 construct: host or cells: rat lens (as named)
Details: cited from earlier work

## C[C@@H]1O[C@@H](Oc2c(-c3ccc(O)c(O)c3)oc3cc(O)cc(O)c3c2=O)[C@H](O)[C@H](O)[C@H]1O [quercitrin]
  inhibition against rat AR: high potency
